Where “and” joins values, the source holds several entries; their conditions need not be identical. Equal values may be shown once. The list shows a part of the results. For some of these results: Construct or isoform of the protein are uncertain.

Amino acid sequences for entries named in this document (tags omitted). A change or cut given only in a name is not applied to a line headed by its entry.
UniProt Q9NPU4: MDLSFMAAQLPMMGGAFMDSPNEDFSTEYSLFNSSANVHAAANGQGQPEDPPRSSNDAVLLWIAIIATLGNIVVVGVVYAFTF

The text below walks through data of publication PMC5996148.

Some test systems named below: C13orf3 (human); C14orf100 (human); C14orf119 (human); C14orf122 (human); C14orf124 (human); C14orf130 (human); C14orf131 (human); C14orf147 (human); C14orf149 (human).
What all share (assay): protein microarray (ProtoArray v5.0), streptavidin-Alexa Fluor 647
Common to all, as to conditions: 3'-biotin; 20 mM Tris (pH 7.5), 5 mM MgCl2, 100 mM KCl, 0.1% Tween-20, A/T-rich and random oligonucleotide blockers; temperature not stated; high values mean tight binding

A further assay deals with C14orf132 (UniProt Q9NPU4).

Take “GGGAGGCTGAGGCAGG [G4-1 biotinylated (PQS2)]”: the binding signal was -0.327 z-score in the assay with C13orf3 (human); -0.348 z-score with C14orf100 (human); -0.374 z-score in the assay on C14orf119 (human); -0.353 z-score with C14orf122 (human); -0.315 z-score with C14orf124 (human); -0.352 z-score in the assay with C14orf130 (human). Moreover, the binding signal is -0.316 z-score and -0.374 z-score in the assay on C14orf131 (human); -0.305 z-score with C14orf132; -0.325 z-score in the assay with C14orf147 (human); -0.319 z-score in the assay on C14orf149 (human).
